The nature of the test: qHTS Assay for Lipid Storage Modulators in Drosophila S3 Cells.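 On cell number change: cells counted by Cell Tracker Red CMTPX staining in the red channel.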 As to conditions: BODIPY lipid droplet fluorescence, 18-24 h; for cell number change: measured here: cell count max response, cells fed with added oleic acid. The method in brief: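 Drosophila S3 cells loaded with oleic acid (400 uM, as added) and compounds at several concentrations; lipid droplets imaged by 488-nm laser-scanning cytometry, 500–530 nm intensity and object ratio to cell channel. Percent activity normalized to 20 uM Triacsin C.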
(qHTS replaces the single test concentration by a dilution series.)

The mark [1] stands for this setting: measured here: cell number channel AC50, cells fed with added oleic acid.
The mark [2] stands for this setting: measured here: lipid fluorescence (Fed channel) AC50, cells fed with added oleic acid.

The list shows a part of the results. Further columns of the screen follow, without active or inactive calls. Compounds called inactive in the main read-out are mostly missing here. Potencies come from curve fits of mixed quality, noted in brackets.

Results on 37 compounds are retold here after PubChem BioAssay AID2685 (National Center for Advancing Translational Sciences (NCATS), 2010).

The AC50 is the midpoint of the concentration-response curve, whichever way the signal moves. Read a high AC50 as activity only at high concentration.

Regarding `CCc1nnc(NC(=O)CCS(=O)(=O)c2ccc(C)cc2)s1`, the cell number change is 120%. Moreover, under setting [1], the half-maximal activity concentration (AC50) was 18.4 µM [rising, partial curve].
Regarding `O=C(Nc1cc(=O)[nH]c2nc(-c3ccccc3)nn12)c1ccccc1Cl`, the AC50 under setting [1] was 0.206 µM [rising, full curve] and the AC50 under setting [2] is 0.58 µM [rising, full curve].
Take `COc1cc(OC)cc(C(=O)NCC(=O)N2CCCCCCC2)c1`: the cell number change was -5.84%. In addition, the concentration at half-maximal activity (AC50) under setting [2] was 13 µM [rising, partial curve, poor fit].
On to `O=C(COC(=O)c1ccc(O)cc1O)NC1CCS(=O)(=O)C1` (stereo not given), for which the cell number change was -22.4%. In addition, the half-maximal activity concentration (AC50) under setting [2] is 14.6 µM [falling, partial curve, poor fit].
In the case of `O=C(c1cc(F)cc2c1OCOC2)N1CCN(c2ccc(F)cc2)CC1`, the cell number change worked out at 1.32%. Moreover, the AC50 under setting [1] is 6.51 µM [falling, single point].
As for `Cc1ccc2nc(/N=C(\N)NC(=O)N3c4ccccc4Sc4ccccc43)nc(C)c2c1`, the cell number change was found to be 10.2%. Also, the AC50 under setting [2] is 1.16 µM [rising, full curve, poor fit].
Turning to `O=C(CSc1nc(-c2ccccc2)c(-c2ccccc2)[nH]1)NCc1ccco1`, the cell number change was -124%. Also, under setting [1], the AC50 is 29.1 µM [falling, single point]. Also, under setting [2], the AC50 is 5.8 µM [rising, partial curve].
Consider `CC(C)N(CCNC(=O)c1ccc(CS(=O)(=O)c2c(Cl)cccc2Cl)o1)Cc1ccccc1`, for which the AC50 under setting [2] was 1.3 µM [rising, full curve].
In the case of `CC1(C)OC(=O)C(=Cc2ccc[nH]2)C(=O)O1`, the cell number change was -27.6%. The AC50 under setting [2] was 0.291 µM [falling, partial curve].
Regarding `Cc1cc2oc(C(=O)NCc3ccncc3)c(C)c2cc1C`, the cell number change was -70.2%. For the same compound, the AC50 under setting [1] was 29.1 µM [falling, single point]. For the same compound, under setting [2], the AC50 was 29.1 µM [falling, single point].
For the compound `CCn1c(O)c(N=NC(=O)Cc2csc(N3CCOCC3)n2)c2ccccc21`, the AC50 under setting [1] is 0.0731 µM [rising, full curve, poor fit] and the AC50 under setting [2] is 0.103 µM [rising, full curve, poor fit].
As to `CCc1noc(C)c1C(=O)Nc1nc2ccc(F)cc2s1`, the cell number change stood at 35%. The AC50 under setting [1] was 5.8 µM [rising, full curve, poor fit].
Regarding `CC1Cc2ccccc2N1C(=O)CSc1nnnn1C` (stereo not given), the cell number change was -15.4%. Further, the AC50 under setting [1] is 3.26 µM [falling, single point].
For `O=C(CCC1CCCN(C(=O)c2ccc3c(c2)OCCO3)C1)NCc1ccccc1F` (stereo not given), the cell number change was -57%. Under setting [1], the concentration at half-maximal activity (AC50) was 3.26 µM [falling, full curve]. Further, the half-maximal activity concentration (AC50) under setting [2] is 2.91 µM [falling, full curve].
Consider `Cc1ccc2c(N)[nH]nc2n1`, for which the cell number change is -0.745%. The AC50 under setting [2] was 6.51 µM [rising, single point].
In the case of `COc1ccc(-c2noc3c2-c2nc(C4CCCCC4)sc2CC3)cc1`, the cell number change was 6.59%. Further, the AC50 under setting [2] was 29.1 µM [rising, single point].
Consider `Cn1c(CSCc2ccc(Cl)c(Cl)c2)nnc1SCC(=O)Nc1nccs1`, for which the cell number change is -7.65%. Also, under setting [2], the AC50 was 4.61 µM [rising, full curve].
For the compound `CCOC(=O)Cc1csc(NC(=O)CSc2nccn2C)n1`, the cell number change turned out to be 16.2%. For the same compound, the AC50 under setting [2] was 11.6 µM [rising, partial curve, poor fit].
`COc1cc(/C=C2\SC(=S)N(CCC(=O)N3CCN(C)CC3)C2=O)cc(OC)c1OC`: the cell number change was found to be 15.1%. Further, under setting [2], the AC50 was 2.91 µM [falling, single point].
On to `COC(=O)[C@@H](NC(=O)Nc1ccc2c(c1)OCCO2)C(C)C`, for which the cell number change was -7.84%.
With `CN(C(=O)CCN1C(=O)/C(=C/c2ccccc2F)SC1=S)C1CCS(=O)(=O)C1` (stereo not given), the cell number change is -22.8%. Under setting [1], the concentration at half-maximal activity (AC50) is 1.03 µM [falling, full curve, poor fit]. The AC50 under setting [2] is 5.8 µM [falling, partial curve].
Consider `CCCOC1CCCN(C(=O)c2ccc(OC)c(OC3CCN(C(C)C)CC3)c2)C1` (stereo not given), for which the cell number change is -21.8%. For the same compound, the AC50 under setting [2] was 29.1 µM [rising, single point].
For `Cc1[nH]c2ccccc2c1/C=N/NC(=O)CNC(=O)Cc1ccccc1`, the cell number change is -23.9%.
For the compound `CCOC(=O)c1cc(S(=O)(=O)Nc2cccc(OC)c2)cn1C`, the cell number change is -5.73%. For the same compound, under setting [1], the concentration at half-maximal activity (AC50) was 3.66 µM [rising, single point].
Consider `O=C1c2ccccc2CCC12N=NCC2c1ccc(Br)cc1` (stereo not given), for which the AC50 under setting [1] was 0.146 µM [rising, full curve, poor fit].
Still for that read-out and setting: under `COC(=O)c1cc(OC)c(OC)cc1NC(=O)C(C)Sc1ccc(C)cc1` (stereo not given) stands 1.64 µM [rising, partial curve]; under `Cc1ccc(O)c(-c2cc(-c3cccc(Br)c3)n[nH]2)c1`, 6.51 µM [rising, single point].
Turning to `O=C(CCn1cnnn1)Nc1ccc(Cl)cc1Cl`, the cell number change was -15.4%. For the same compound, the AC50 under setting [2] is 6.51 µM [rising, single point].
As for `COc1ccc(S(=O)(=O)N(C)C)cc1NC(=O)COC(=O)c1nn(C)c(=O)c2ccccc12`, the cell number change was 14.7%. Besides, the AC50 under setting [1] is 0.092 µM [rising, full curve, poor fit]. Also, the AC50 under setting [2] was 5.17 µM [rising, single point].
In the case of `CCC(=O)NCCCCNC(=O)CC`, the cell number change is -3.5%. Under setting [2], the concentration at half-maximal activity (AC50) is 29.1 µM [falling, single point].
As for `CC(C)C(=O)Nc1c2c(nc3c1CCC3)CCCC2`, the cell number change came out at 25%. Also, under setting [2], the AC50 is 0.517 µM [falling, partial curve].
For `CC(Oc1ccc(Cl)cc1)C(=O)NCCN1C(=O)S/C(=C\c2cccnc2)C1=O` (stereo not given), the cell number change is -7.73%. Moreover, the AC50 under setting [2] is 32.6 µM [falling, single point].
Turning to `COc1ccc(NC(=O)N[C@@H](CCSC)C(=O)O)cc1Cl`, the cell number change is -63.8%. Also, the AC50 under setting [1] is 29.1 µM [falling, single point]. Also, the AC50 under setting [2] was 3.66 µM [falling, full curve, poor fit].
Take `CCc1ccc(CN(C)C(=O)c2cc(COc3ccc(OC)cc3Cl)on2)nc1`: the cell number change was 8.1%. Besides, the AC50 under setting [1] was 0.355 µM [rising, full curve, poor fit]. Moreover, under setting [2], the AC50 is 0.501 µM [rising, full curve, poor fit].
Regarding `COc1cc(C(=O)NCC(=O)Nc2ccc(F)c(F)c2)ccc1OCC(=O)N1CCOCC1`, the cell number change was -20.1%. Besides, the AC50 under setting [2] was 7.31 µM [falling, partial curve, poor fit].
For the compound `CC1(C)CC(=O)C(C(O)c2cccc([N+](=O)[O-])c2)C(C)(C)N1` (stereo not given), the cell number change is 4.05%.
For `COC(=O)C(CCSC)NC(=O)Cn1ncc2c(=O)oc3ccccc3c21` (stereo not given), the cell number change is -42%. Also, the AC50 under setting [1] is 29.1 µM [falling, single point]. The half-maximal activity concentration (AC50) under setting [2] was 32.6 µM [falling, single point].
